No constants are given. Whether binding was seen depends on the method and setting. In cells and extracts the contact can be indirect. A yes stands for co-enrichment or nearness to the bait. Other partners may have been found. No binding means not detected with the bait.

Chains of the proteins cited; added tags and fusions are not shown. Residues count along the entry.
UniProt P27824, residues 21-592: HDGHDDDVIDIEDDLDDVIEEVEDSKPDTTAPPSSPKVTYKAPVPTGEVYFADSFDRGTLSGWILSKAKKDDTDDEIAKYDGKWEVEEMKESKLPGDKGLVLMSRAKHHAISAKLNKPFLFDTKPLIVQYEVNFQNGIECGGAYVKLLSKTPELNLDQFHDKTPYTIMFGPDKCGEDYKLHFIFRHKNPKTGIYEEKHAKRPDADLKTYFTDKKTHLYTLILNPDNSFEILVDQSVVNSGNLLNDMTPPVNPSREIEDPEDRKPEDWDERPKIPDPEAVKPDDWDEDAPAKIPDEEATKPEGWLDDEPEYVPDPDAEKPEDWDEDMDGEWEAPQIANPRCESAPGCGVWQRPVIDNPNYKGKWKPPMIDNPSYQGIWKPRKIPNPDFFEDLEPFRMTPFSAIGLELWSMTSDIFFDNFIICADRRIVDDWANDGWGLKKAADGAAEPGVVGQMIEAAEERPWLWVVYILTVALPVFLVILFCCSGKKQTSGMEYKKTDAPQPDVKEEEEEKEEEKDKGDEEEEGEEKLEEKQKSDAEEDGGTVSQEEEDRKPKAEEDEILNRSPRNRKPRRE

Consider seven molecules from article PMC3789979, “Recruitment of a Cytoplasmic Chaperone Relay by the A2A Adenosine Receptor” (The Journal of Biological Chemistry, 2013).

Assay [1] concerns the target FSt2-N-A2A receptor (human) (UniProt P29274). The assay can be described thus: affinity purification with mass spectrometry; tandem affinity purification of FSt2-N-A2A receptor from DDM extracts of HEK293 membranes: anti-FLAG-agarose, elution with FLAG peptide, Strep-Tactin-Sepharose; in-solution tryptic digest, nano-LC-MS/MS; control cells processed in parallel.
For assay [2], the target named is G2S-N-A2A receptor (human) (UniProt P29274). The assay can be described thus: affinity purification with mass spectrometry; tandem affinity purification of G2S-N-A2A receptor from DDM extracts of HEK293 membranes: IgG-agarose 2 h 4 °C, TEV protease elution, streptavidin beads 2 h 4 °C, elution with 2 mM biotin and 6 M urea; in-solution tryptic digest, nano-LC-MS/MS; control cells processed in parallel.

With “Calnexin precursor (major histocompatibility complex class I antigen- binding protein p88, p90, IP90) (from UniProt P27824 21-592)”, the binding result in assay [1] and in assay [2] was “binds” each time.

“Calreticulin precursor (CRP55) (calregulin, ERp60, grp60) (from UniProt P27797 18-417)”: the binding entry in assay [1] and in assay [2] was “binds” throughout.

Consider “Endoplasmin precursor (94-kDa glucose-regulated protein; gp96 homolog, tumor rejection antigen 1) (from UniProt P14625 22-803)”, for which the binding entry in assay [1] and in assay [2] was “binds” throughout.

Take HSP90β (from UniProt P08238 1-724): the binding entry in assay [1] and in assay [2] was “no binding” throughout.

Turning to “Heat-shock 70-kDa protein 1A (HSP70.1) (from UniProt P0DMV8 1-641)”, the binding result in assay [1] and in assay [2] was “binds” throughout.

On to “Heat-shock protein 90α (from UniProt P07900 1-732)”, for which the binding entry in assay [1] and in assay [2] was “binds” throughout.

B1: Protein-disulfide isomerase A6 precursor (protein disulfide-isomerase P5) (protein, UniProt Q15084 20-440)
chain: LYSSSDDVIELTPSNFNREVIQSDSLWLVEFYAPWCGHCQRLTPEWKKAATALKDVVKVGAVDADKHHSLGGQYGVQGFPTIKIFGSNKNRPEDYQGGRTGEAIVDAALSALRQLVKDRLGGRSGGYSSGKQGRSDSSSKKDVIELTDDSFDKNVLDSEDVWMVEFYAPWCGHCKNLEPEWAAAASEVKEQTKGKVKLAAVDATVNQVLASRYGIRGFPTIKIFQKGESPVDYDGGRTRSDIVSRALDLFSDNAPPPELLEIINEDIAKRTCEEHQLCVVAVLPHILDTGAAGRNSYLEVLLKLADKYKKKMWGWLWTEAGAQSELETALGIGGFGYPAMAAINARKMKFALLKGSFSEQGINEFLRELSFGRGSTAPVGGGAFPTIVEREPWDGRDGELPVEDDIDLSDVELDDLGKDEL
In the case of B1, the binding entry in assay [1] and in assay [2] was “binds” throughout.
